Source: publication PMC6802665
No constants are given. Whether binding was seen depends on the method and setting. Binding seen in cells or lysates may run through a third protein. Some entries that bind do so weakly or less than the wild type.

By UniProt entry, the sequences of proteins in these tests, tags left out.
UniProt P04792: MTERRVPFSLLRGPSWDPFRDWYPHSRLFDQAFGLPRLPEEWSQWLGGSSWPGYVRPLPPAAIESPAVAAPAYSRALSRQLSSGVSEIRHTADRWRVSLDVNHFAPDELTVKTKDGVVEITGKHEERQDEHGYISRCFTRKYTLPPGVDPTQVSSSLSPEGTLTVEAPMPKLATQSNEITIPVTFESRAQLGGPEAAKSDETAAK
UniProt P14602: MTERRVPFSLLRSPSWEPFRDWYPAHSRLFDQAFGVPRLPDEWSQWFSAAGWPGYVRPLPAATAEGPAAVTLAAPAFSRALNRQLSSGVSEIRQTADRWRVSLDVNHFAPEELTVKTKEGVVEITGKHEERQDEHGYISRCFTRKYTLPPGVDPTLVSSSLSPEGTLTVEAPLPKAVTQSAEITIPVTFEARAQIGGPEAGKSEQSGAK
UniProt P40763: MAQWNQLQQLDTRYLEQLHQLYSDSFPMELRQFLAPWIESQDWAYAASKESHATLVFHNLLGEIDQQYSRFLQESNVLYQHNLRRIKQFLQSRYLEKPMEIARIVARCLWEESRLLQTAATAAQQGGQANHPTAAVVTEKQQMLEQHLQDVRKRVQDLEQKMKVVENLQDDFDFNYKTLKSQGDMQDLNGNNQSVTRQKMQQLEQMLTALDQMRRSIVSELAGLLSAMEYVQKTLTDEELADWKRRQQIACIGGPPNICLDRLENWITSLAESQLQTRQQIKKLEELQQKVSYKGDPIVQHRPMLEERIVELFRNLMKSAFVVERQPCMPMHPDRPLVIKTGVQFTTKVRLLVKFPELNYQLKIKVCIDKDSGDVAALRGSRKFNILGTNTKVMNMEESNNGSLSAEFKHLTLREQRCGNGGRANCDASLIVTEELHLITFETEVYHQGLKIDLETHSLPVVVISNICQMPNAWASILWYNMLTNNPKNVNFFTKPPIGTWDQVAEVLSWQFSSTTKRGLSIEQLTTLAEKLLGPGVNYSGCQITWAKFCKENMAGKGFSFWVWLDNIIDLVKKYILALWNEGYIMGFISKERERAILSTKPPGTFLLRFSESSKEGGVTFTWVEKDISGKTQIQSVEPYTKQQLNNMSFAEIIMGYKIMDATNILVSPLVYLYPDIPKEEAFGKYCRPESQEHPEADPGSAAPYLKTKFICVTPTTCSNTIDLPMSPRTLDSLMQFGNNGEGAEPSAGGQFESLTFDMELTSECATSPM
UniProt P08047: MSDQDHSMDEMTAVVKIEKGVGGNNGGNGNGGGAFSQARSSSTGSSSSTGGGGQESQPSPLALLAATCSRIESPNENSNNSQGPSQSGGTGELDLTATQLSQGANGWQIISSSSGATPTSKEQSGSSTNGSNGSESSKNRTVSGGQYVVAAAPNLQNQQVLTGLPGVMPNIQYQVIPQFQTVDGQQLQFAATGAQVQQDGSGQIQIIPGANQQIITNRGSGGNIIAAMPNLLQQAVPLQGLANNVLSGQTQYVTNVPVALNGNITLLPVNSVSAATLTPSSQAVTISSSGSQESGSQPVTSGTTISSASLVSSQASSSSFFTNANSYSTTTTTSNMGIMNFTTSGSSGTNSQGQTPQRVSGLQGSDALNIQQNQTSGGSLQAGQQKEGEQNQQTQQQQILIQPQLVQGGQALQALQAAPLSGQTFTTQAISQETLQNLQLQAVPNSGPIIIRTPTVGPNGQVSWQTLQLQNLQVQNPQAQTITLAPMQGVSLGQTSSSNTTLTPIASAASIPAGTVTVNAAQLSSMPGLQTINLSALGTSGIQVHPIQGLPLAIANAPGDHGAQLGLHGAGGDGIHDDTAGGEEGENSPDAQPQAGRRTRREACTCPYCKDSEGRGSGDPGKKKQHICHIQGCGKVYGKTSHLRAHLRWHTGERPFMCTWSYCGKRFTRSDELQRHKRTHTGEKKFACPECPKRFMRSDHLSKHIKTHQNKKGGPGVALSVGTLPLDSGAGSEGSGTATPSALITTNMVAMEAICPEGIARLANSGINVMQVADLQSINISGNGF
UniProt P42227: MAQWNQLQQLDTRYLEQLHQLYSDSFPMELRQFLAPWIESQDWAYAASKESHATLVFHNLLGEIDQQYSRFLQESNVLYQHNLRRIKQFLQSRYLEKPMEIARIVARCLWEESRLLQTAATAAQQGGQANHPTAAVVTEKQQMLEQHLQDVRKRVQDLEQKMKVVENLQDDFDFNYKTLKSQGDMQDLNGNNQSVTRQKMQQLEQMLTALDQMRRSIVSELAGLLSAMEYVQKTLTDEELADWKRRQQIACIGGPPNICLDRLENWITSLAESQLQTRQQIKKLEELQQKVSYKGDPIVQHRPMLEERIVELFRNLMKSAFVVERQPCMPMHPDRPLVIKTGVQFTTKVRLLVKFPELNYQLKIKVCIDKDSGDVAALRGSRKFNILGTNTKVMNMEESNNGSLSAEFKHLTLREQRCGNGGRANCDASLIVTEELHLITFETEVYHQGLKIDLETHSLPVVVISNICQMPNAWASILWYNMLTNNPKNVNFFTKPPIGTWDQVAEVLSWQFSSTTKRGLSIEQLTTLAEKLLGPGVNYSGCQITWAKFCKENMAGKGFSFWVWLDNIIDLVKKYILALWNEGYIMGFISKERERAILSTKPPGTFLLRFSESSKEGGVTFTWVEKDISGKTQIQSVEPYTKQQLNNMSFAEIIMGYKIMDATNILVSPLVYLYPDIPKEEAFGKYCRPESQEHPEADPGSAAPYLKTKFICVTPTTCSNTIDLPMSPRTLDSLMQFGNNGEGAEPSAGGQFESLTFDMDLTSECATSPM
UniProt O35613: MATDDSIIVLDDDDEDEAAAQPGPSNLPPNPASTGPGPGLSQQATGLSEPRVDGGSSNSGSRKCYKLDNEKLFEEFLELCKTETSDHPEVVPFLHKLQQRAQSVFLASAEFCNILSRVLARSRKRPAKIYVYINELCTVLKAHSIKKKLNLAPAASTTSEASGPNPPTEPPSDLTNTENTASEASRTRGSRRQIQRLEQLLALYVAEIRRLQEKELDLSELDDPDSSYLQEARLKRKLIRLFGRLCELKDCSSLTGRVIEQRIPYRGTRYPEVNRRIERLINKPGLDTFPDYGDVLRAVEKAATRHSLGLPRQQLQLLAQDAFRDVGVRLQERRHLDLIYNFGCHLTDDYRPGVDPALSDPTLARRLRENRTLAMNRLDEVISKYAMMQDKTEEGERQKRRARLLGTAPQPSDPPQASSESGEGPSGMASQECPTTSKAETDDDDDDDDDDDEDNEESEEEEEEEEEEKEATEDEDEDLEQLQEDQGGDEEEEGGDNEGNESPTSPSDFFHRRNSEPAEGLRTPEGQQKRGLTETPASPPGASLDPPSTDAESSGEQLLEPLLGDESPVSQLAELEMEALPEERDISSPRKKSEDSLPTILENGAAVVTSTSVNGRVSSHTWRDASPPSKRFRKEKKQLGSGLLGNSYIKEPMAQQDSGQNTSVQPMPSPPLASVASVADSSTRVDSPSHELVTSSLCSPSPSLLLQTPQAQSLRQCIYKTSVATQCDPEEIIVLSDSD
UniProt Q9UER7: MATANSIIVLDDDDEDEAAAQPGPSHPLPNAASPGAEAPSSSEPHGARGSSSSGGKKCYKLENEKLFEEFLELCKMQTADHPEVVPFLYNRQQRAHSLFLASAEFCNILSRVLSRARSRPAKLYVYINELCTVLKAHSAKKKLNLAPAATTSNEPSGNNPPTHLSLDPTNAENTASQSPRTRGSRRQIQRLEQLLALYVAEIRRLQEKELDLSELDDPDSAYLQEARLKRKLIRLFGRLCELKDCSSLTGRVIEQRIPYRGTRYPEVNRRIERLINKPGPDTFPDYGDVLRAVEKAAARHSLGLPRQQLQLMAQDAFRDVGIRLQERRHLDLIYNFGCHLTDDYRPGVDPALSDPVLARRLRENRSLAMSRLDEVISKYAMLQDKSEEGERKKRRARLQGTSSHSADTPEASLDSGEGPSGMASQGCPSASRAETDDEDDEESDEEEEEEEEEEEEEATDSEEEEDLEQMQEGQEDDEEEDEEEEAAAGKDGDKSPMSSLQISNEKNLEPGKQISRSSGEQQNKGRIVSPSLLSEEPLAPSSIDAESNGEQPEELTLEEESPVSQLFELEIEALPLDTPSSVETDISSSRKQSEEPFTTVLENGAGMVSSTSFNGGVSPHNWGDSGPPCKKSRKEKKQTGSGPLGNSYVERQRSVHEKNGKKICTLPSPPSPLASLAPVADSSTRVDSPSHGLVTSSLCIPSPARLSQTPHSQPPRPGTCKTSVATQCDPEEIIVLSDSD

Key:
[1] = molecular target: heat shock protein 27 (HSP27), human (human (endogenous in A375 and MiaPaCa-2)) (UniProt P04792); assay: co-IP
[2] = molecular target: heat shock protein 25 (HSP25), mouse (mouse) (UniProt P14602); assay: co-IP

| Substance | binding [1] | binding [2] |
| --- | --- | --- |
| signal transducer and activator of transcription 3 (stat3), human (from UniProt P40763 1-770) | binds | – |
| Sp1 transcription factor, human (from UniProt P08047 1-785) | binds | – |
| signal transducer and activator of transcription 3 (stat3), mouse (from UniProt P42227 1-770) | – | binds |
| death domain-associated protein (Daxx), mouse (from UniProt O35613 1-739) | – | no binding |
| death domain-associated protein (Daxx), human (from UniProt Q9UER7 1-740) | binds | – |
